Consider 37 targets from the supplement of paper PMC11006884.

Amino acid sequences for entries named in this document (tags omitted). A change or cut given only in a name is not applied to a line headed by its entry.
UniProt Q6P1Q9: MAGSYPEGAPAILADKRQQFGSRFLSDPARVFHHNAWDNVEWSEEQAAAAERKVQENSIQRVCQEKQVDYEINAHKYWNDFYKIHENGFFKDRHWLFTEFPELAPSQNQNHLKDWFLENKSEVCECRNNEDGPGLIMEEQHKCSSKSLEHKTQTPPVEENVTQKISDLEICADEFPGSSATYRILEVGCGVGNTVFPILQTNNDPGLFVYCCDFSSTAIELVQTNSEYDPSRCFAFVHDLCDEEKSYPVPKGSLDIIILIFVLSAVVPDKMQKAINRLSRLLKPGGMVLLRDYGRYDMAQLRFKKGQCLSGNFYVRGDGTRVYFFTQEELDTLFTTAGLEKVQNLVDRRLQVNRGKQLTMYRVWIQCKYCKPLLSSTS
UniProt Q5SW79: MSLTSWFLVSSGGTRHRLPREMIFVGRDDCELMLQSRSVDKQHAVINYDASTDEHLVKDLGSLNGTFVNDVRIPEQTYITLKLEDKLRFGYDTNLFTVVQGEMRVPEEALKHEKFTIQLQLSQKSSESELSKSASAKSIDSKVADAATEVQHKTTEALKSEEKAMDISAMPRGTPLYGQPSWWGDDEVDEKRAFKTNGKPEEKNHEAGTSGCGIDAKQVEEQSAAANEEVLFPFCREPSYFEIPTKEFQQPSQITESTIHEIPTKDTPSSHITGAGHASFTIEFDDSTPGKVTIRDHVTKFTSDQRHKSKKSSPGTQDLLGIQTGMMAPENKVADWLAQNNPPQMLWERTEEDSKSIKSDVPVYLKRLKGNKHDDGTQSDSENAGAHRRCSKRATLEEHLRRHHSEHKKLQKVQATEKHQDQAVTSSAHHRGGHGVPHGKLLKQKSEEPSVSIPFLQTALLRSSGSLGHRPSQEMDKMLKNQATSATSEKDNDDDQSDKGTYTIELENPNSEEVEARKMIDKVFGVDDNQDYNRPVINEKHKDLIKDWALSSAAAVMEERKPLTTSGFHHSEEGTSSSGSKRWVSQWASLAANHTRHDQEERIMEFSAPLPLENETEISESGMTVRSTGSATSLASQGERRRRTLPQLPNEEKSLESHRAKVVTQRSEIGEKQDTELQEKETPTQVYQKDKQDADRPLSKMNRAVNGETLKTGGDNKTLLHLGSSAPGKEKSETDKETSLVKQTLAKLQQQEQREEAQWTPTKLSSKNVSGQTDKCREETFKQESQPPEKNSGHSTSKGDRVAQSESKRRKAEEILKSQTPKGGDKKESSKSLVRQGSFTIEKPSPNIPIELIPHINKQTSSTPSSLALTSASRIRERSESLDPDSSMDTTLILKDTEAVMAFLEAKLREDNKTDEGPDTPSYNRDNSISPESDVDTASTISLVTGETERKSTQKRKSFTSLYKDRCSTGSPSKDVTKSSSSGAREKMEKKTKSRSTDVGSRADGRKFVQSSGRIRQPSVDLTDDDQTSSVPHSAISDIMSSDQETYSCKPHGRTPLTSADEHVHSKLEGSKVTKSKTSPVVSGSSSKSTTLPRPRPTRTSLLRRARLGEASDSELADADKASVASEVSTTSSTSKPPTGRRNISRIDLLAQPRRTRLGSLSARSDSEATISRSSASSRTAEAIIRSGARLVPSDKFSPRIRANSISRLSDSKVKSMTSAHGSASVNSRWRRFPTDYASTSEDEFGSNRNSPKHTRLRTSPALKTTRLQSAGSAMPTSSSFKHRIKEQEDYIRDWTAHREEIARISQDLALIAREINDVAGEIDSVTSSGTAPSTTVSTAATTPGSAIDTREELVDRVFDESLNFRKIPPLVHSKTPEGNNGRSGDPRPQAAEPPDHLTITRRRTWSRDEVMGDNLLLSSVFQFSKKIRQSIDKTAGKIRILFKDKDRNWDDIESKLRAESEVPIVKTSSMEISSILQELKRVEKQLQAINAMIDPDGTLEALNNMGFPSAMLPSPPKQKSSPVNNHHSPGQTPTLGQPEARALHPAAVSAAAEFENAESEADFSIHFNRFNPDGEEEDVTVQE
UniProt Q69YN2: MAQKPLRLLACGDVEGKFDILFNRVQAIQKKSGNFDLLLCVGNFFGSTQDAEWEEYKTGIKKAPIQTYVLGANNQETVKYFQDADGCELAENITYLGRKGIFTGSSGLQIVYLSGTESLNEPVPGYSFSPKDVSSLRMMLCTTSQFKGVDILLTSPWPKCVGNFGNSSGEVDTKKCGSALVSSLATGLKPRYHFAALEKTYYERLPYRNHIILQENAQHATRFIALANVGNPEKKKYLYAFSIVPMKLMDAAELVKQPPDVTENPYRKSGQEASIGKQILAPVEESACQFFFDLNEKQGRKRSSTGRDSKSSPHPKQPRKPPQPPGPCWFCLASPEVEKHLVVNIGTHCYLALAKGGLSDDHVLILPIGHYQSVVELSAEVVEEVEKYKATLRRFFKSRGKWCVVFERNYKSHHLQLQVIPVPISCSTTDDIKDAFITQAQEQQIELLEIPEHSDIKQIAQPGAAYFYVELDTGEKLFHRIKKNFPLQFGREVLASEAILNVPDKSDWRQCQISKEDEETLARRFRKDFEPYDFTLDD
UniProt Q66K14, whole entry, looked up: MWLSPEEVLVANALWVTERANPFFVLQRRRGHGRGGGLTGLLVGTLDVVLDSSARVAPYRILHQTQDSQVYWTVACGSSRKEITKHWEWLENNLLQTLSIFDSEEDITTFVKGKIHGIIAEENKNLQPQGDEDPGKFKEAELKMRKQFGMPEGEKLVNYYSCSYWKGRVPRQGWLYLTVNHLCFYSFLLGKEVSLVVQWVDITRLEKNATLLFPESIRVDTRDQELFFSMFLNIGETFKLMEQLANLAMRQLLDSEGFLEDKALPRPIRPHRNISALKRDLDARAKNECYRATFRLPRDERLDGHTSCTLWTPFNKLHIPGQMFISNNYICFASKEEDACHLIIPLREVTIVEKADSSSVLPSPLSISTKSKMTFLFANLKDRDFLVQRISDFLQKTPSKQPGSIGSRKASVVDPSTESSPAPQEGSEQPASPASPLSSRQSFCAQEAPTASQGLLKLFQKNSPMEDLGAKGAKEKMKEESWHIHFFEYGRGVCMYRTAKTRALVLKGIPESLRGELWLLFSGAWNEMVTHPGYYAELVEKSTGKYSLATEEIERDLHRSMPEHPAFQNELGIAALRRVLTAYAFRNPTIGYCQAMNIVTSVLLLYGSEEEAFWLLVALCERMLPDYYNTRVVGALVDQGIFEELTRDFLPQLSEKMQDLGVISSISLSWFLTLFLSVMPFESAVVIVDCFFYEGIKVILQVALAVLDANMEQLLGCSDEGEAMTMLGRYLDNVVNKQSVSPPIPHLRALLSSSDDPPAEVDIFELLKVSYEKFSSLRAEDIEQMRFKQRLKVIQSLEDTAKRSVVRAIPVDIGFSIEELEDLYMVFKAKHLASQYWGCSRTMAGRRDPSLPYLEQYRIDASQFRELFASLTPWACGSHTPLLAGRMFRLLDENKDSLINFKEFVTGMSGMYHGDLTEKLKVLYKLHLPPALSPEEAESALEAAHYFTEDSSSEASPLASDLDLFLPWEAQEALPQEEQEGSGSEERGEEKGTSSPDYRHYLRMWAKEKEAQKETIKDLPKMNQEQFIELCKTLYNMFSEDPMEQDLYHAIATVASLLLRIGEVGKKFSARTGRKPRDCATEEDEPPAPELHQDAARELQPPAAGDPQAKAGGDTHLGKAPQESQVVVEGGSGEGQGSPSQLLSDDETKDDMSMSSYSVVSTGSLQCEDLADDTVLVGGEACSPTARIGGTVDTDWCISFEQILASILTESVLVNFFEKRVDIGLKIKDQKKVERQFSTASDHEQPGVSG
UniProt Q5T5X7: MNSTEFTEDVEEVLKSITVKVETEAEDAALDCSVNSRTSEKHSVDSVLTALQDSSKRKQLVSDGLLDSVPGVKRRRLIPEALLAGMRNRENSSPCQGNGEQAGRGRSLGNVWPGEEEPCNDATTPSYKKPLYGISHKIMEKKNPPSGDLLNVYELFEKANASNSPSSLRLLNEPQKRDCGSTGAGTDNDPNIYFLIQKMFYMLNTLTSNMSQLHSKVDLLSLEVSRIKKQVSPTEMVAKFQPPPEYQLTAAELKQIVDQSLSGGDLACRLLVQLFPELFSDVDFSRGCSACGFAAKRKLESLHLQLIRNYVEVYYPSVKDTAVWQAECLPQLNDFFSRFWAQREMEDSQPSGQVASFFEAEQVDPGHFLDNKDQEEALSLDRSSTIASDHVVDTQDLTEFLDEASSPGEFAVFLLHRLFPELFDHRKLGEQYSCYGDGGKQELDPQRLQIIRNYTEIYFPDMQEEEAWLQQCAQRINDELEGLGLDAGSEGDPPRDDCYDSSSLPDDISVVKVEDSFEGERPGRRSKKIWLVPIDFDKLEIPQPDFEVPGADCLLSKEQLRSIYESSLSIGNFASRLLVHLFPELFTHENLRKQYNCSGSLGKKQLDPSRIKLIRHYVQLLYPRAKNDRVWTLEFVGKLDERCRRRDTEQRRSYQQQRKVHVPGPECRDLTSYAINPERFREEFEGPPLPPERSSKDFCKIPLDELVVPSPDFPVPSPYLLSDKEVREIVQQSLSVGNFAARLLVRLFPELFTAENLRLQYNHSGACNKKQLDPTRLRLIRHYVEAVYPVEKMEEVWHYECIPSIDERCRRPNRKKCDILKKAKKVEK
UniProt Q5W0B1: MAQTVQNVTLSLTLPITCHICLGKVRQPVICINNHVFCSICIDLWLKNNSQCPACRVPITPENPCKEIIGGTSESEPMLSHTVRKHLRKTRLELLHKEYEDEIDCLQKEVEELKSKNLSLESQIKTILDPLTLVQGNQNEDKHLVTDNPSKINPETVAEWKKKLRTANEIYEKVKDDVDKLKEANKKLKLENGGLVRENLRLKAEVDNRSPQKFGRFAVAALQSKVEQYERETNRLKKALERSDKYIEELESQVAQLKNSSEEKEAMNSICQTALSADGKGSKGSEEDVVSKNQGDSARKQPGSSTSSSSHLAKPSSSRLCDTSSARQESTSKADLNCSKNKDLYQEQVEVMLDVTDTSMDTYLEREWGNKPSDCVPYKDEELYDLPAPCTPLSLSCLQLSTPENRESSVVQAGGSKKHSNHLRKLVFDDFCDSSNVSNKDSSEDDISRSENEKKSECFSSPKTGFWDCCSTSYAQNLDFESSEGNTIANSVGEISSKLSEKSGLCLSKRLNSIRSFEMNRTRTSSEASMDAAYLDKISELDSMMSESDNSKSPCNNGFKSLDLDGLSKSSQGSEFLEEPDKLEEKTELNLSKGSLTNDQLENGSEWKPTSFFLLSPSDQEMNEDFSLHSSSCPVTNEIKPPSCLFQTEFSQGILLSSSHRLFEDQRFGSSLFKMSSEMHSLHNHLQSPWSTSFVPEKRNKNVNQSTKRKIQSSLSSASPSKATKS
UniProt Q6SZW1: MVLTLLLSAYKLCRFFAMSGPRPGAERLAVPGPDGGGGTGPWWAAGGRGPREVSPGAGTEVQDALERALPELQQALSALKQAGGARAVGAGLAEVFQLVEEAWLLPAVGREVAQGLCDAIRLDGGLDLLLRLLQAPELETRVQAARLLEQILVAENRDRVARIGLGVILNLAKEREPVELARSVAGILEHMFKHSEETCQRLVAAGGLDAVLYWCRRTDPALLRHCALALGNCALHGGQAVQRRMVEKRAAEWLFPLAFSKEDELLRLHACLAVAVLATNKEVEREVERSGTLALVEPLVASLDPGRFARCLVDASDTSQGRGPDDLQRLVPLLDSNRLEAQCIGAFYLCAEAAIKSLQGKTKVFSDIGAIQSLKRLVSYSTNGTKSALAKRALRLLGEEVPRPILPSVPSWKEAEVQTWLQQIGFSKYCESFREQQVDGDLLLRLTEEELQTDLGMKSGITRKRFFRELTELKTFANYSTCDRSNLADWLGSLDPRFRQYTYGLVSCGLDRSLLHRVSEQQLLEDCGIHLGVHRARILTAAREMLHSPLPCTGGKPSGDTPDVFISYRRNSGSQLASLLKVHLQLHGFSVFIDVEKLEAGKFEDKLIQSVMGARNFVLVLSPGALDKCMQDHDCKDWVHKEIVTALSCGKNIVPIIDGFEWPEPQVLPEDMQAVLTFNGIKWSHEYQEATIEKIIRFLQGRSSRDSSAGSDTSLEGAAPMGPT
UniProt Q6AI12: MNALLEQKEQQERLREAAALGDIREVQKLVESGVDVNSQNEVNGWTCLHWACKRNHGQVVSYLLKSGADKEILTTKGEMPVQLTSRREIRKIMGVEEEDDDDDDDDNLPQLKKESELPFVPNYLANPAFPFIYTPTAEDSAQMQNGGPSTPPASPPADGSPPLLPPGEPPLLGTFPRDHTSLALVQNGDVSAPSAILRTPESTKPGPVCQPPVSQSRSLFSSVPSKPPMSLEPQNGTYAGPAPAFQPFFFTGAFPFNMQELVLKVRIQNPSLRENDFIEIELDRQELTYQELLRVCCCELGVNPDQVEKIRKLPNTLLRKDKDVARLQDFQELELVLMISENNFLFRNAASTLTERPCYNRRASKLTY

The list shows a part of the results, in another mix than the full data.

Compound in the test: COC(=O)C#Cc1ccccc1 [methyl 3-phenylpropiolate]
Put plainly: log2 ratio of iodoacetamide-alkyne labeling of the cysteine site, DMSO over compound (competition); higher = stronger covalent engagement of the cysteine by the compound, active = 1 or more. The note with it: 500 µM; treatment time 1 h; system: HEK293T cell lysate. An outline of the steps: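 HEK293T lysate (2 mg/mL) was incubated with electrophile (500 µM) or vehicle for 1 h at ambient temperature and then with iodoacetamide alkyne for 1 h. Labelled proteins were clicked to sCIP-TMT reagents, pooled, digested, enriched on streptavidin and measured by Orbitrap Eclipse LC-MS/MS with FAIMS, with FragPipe quantification. The per-cysteine log2 competition ratio is mean control-channel reporter intensity over mean compound-channel reporter intensity. Across three replicates with duplicate channels, cysteines quantified in only one replicate were excluded.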
METTL2B C171 (UniProt Q6P1Q9): the “log2 ratio of iodoacetamide-alkyne labeling” value (from here on “log2 ratio”) was inactive: 0.293.

Turning to BCORL1 C617 (UniProt Q5H9F3), the “log2 ratio” value was inactive: 0.399.

With YOD1 C97 (UniProt Q5VVQ6), the “log2 ratio” value was inactive: 0.146.

On to LARP1 C864 (UniProt Q6PKG0), for which the “log2 ratio” value is inactive: 0.428.

Regarding PDE4DIP C617 (UniProt Q5VU43), the “log2 ratio” value is inactive: 0.321.

For the target CEP170 C1049 (UniProt Q5SW79), the “log2 ratio” value was inactive: 0.346.

Turning to RPRD2 C903 (UniProt Q5VT52), the “log2 ratio” value was inactive: 0.34.

In the case of UniProt Q5TAX3_C1226, the “log2 ratio” value is inactive: 0.391.

For GIGYF2 C573 (UniProt Q6Y7W6), the “log2 ratio” value was inactive: 0.264.

ALKBH5 C378 (UniProt Q6P6C2): the “log2 ratio” value was inactive: 0.342.

CWF19L1 C160 (UniProt Q69YN2): the “log2 ratio” value is inactive: 0.154.

In the case of TBC1D9B C1079 (UniProt Q66K14), the “log2 ratio” value was inactive: 0.224.

Take BEND3 C95 (UniProt Q5T5X7): the “log2 ratio” value was active: 1.11.

Regarding THADA C144 (UniProt Q6YHU6), the “log2 ratio” value was inactive: 0.24.

Take UniProt Q5W0B1_C105: the “log2 ratio” value is inactive: 0.0516.

ZC3H14 C261 (UniProt Q6PJT7): the “log2 ratio” value was inactive: 0.396.

Consider UniProt Q58WW2_C593, for which the “log2 ratio” value was inactive: 0.295.

As for UniProt Q6NSI4_C60, the “log2 ratio” value is inactive: 0.322.

As for UniProt Q6ZS17_C1137, the “log2 ratio” value was inactive: 0.0366.

With UniProt Q5T440_C170, the “log2 ratio” value was inactive: 0.789.

Turning to DARS2 C590 (UniProt Q6PI48), the “log2 ratio” value was inactive: 0.208.

Take CEP78 C653 (UniProt Q5JTW2): the “log2 ratio” value is inactive: 0.338.

In the case of SARM1 C311 (UniProt Q6SZW1), the “log2 ratio” value was inactive: 0.5.

Consider UniProt Q712K3_C191, for which the “log2 ratio” value was inactive: 0.208.

For LIN28B C201 (UniProt Q6ZN17), the “log2 ratio” value is inactive: 0.78.

For the target FKBP15 C1031 (UniProt Q5T1M5), the “log2 ratio” value is inactive: 0.273.

For the target ZC3H14 C707 (UniProt Q6PJT7), the “log2 ratio” value is inactive: -0.0936.

In the case of ANKRD54 C23 (UniProt Q6NXT1), the “log2 ratio” value was inactive: 0.399.

DUS1L C213 (UniProt Q6P1R4): the “log2 ratio” value is inactive: 0.157.

For AARS2 C609 (UniProt Q5JTZ9), the “log2 ratio” value is inactive: 0.271.

As to MIA3 C1513 (UniProt Q5JRA6), the “log2 ratio” value was inactive: 0.31.

Take ANKRD40 C358 (UniProt Q6AI12): the “log2 ratio” value is active: 1.2.

For the target MTHFD1L C779 (UniProt Q6UB35), the “log2 ratio” value is inactive: 0.893.

In the case of UBR4 C1458 (UniProt Q5T4S7), the “log2 ratio” value was inactive: 0.138.

AAGAB C203 (UniProt Q6PD74): the “log2 ratio” value is inactive: 0.0796.

With CDCA2 C188 (UniProt Q69YH5), the “log2 ratio” value is inactive: 0.536.

Consider TTC37 C1280 (UniProt Q6PGP7), for which the “log2 ratio” value is inactive: 0.103.
